PubChem BioAssay AID652243 – Drosophila RNAi Screening Center – 2013
Screen: 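Knock-downs that decrease or increase androgen receptor reporter signal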 (primary screen). System: Drosophila S2R+ cells. Knock-down reagent: long dsRNA against Drosophila genes. Time to read-out: 72 h (48 h, then 24 h hormone). Treatment: synthetic androgen R1881 at 10 nM for 24 h. Measurement: 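Per-well raw luminescence of the androgen-driven firefly reporter and of the Renilla control, two replicates each, without normalisation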. Reading the numbers: firefly reporter light: higher = more light from androgen-responsive reporter; Renilla control light: higher = more constitutive control signal (cell number, transfection). Hit rule: 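Across duplicate plates, a knock-down whose log firefly/Renilla ratio shifted a set fold down or up from the GFP/LacZ control mean was a hit; the downward cut appears as both 1.5 and 3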. Calls: active = hit: reporter lowered or raised; inactive = no hit.
In all, the deposit lists about 24,000 reagents; below is an unselected part of those that have a named target and a result. In the full data, 246 (1%) are marked active. 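Plates not normalised; calls are printed but the firefly/Renilla ratio behind them is not deposited; fold cut for lowering reported inconsistently.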 Raw values vary from plate to plate and are shown uncorrected. Reagents against one gene are numbered here. A plus sign joins genes that one reagent is predicted to hit. Not stated in the record: the amount of reagent.

| Gene | reagent no. | firefly reporter light, replicate 1 | firefly reporter light, replicate 2 | Renilla control light, replicate 1 | Renilla control light, replicate 2 | outcome |
| --- | --- | --- | --- | --- | --- | --- |
| CG3085 | 1 | 7.34e5 | 7.50e5 | 9.01e5 | 7.85e5 | inactive |
| Tcs3 | 1 | 2.43e5 | 1.58e5 | 2.66e6 | 1.12e6 | inactive |
| Tcs3 | 2 | 4.31e5 | 3.17e5 | 1.09e6 | 9.61e5 | inactive |
| CG13747 | 1 | 3.90e5 | 3.52e5 | 2.14e6 | 2.42e6 | inactive |
| CG4853 | 1 | 3.98e5 | 1.19e5 | 6.18e5 | 4.88e5 | inactive |
| CG4853 | 2 | 3.91e5 | 6.29e5 | 6.17e5 | 1.01e6 | inactive |
| Rpt2 | 1 | 72134 | 69502 | 3.91e5 | 3.50e5 | inactive |
| Rpt2 | 2 | 3.51e5 | 3.52e5 | 3.16e5 | 3.91e5 | inactive |
| stw | 1 | 4.43e5 | 3.56e5 | 1.78e6 | 1.61e6 | inactive |
| stw | 2 | 4.56e5 | 3.81e5 | 1.87e6 | 1.92e6 | inactive |
| stw | 3 | 7.11e5 | 6.40e5 | 3.07e5 | 2.51e5 | inactive |
| stw | 4 | 4.56e5 | 4.19e5 | 7.72e5 | 7.41e5 | inactive |
| Jhbp7 | 1 | 1.64e5 | 2.35e5 | 2.90e6 | 3.04e6 | inactive |
| Jhbp7 | 2 | 4.18e5 | 3.26e5 | 1.15e6 | 9.18e5 | inactive |
| dpr5 | 1 | 31163 | 66441 | 8.18e5 | 7.03e5 | inactive |
| dpr5 | 2 | 4.57e5 | 4.03e5 | 5.73e5 | 6.07e5 | inactive |
| CG12826 | 1 | 3.54e5 | 3.62e5 | 1.29e6 | 1.27e6 | inactive |
| Cyp6w1 | 1 | 9.94e5 | 8.60e5 | 1.58e6 | 1.52e6 | inactive |
| CG14538 (retired record) | 1 | 2.11e5 | 1.86e5 | 2.05e6 | 2.37e6 | inactive |
| CG14538 (retired record) | 2 | 5.11e5 | 5.13e5 | 1.40e6 | 1.40e6 | inactive |
| CG40467 (retired record) | 1 | 9.11e5 | 7.22e5 | 1.63e6 | 1.80e6 | inactive |
| Klp3A | 1 | 1.17e5 | 94555 | 1.27e6 | 8.96e5 | inactive |
| Klp3A | 2 | 9.19e5 | 7.30e5 | 1.79e6 | 1.41e6 | inactive |
| CG3502 + CG9863 | 1 | 2.66e5 | 2.01e5 | 1.42e6 | 1.61e6 | inactive |
